Measured values from PubChem BioAssay AID445 (National Center for Advancing Translational Sciences (NCATS), 2006).
Some of the results follow. The main result of the screen is listed elsewhere. These columns were measured beside it and carry no call. The list favours compounds with an active or inconclusive main result. The note in brackets gives the kind of curve behind each potency; many fits are weak.

Assay: IkB Signaling
Conditions: ABC-DLBCL IkBa-CBG/CBR dual luciferase ratio (green luciferase fused to IkBa over red control in OCI-Ly3 lymphoma cells), 4 h
Summary of the method: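 Luminescence ratio of IκBα-fused green versus native red beetle luciferase in OCI-Ly3 cells, 4 h post-doxycycline with compound; red signal alone, scaled from basal (0%) to zero light (-100%), flagged nonspecific or cytotoxic effects.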

[1] = measured here: control luc red channel unless noted
[2] = measured here: IkB-luc green channel
[3] = measured here: control luc red channel

Cc1ccc(S(=O)(=O)c2c(Nc3cc(F)ccc3F)sc(C(=O)c3ccc(F)cc3)c2N)cc1
AC50 [1]: 7.94 µM [falling, full curve]

Cc1cc(C)cc(NC(=O)C2CCCN(C(=O)c3cnn(-c4ccccc4)c3-n3cccc3)C2)c1 (stereo unspecified)
AC50 [1]: 15.8 µM [falling, partial curve]

CCC1CCCCN1CC(=O)Nc1cc(C)c2c(=O)oc3ccccc3c2n1 (stereo unspecified)
AC50 [1]: 39.8 µM [falling, single point]

Cc1ccc(-c2nonc2NC(=O)c2ccc(F)cc2)cc1C
AC50 [1]: 25.1 µM [falling, single point]

CCc1nn(C(CC)C(=O)NCc2ccc(F)cc2)c(=O)c2cc3occc3n12 (stereo unspecified)
AC50 [1]: 25.1 µM [falling, single point]

O=C(COC(=O)C1CC2C=CC1C2)Nc1ccc2c(c1)OC(F)(F)O2 (stereo unspecified)
AC50 [1]: 31.6 µM [falling, single point]

O=C(CCc1ccccc1)N(Cc1cccnc1)c1nc2c(F)cccc2s1
AC50 [1]: 12.6 µM [falling, partial curve]

O=C(Nc1ccc(Cl)c(Cl)c1)OCc1cccnc1
AC50 [1]: 39.8 µM [falling, single point]

COc1cc(C(=O)NCC(c2ccco2)S(=O)(=O)c2ccccc2)cc(OC)c1OC (stereo unspecified)
AC50 [1]: 0.501 µM [falling, full curve, poor fit]

CCCOc1ccc(C(=O)N(Cc2ccc(N(C)C)cc2)CC2CCCO2)cc1 (stereo unspecified)
AC50 [1]: 20 µM [falling, partial curve]

CC1=C(C(=O)Nc2ccccc2)C(CC(C)C)n2nc(SCc3ccccc3C)nc2N1 (stereo unspecified)
AC50 [1]: 20 µM [falling, partial curve]

O=C(c1cc2c(s1)-c1ccccc1OC2)N1CCN(c2ccccc2)CC1
AC50 [1]: 0.2 µM [falling, full curve]

CCCOc1ccc2oc(=O)c3c(c2c1)CCCN3C(=O)CN1CCc2ccccc2C1
AC50 [1]: 15.8 µM [falling, partial curve]

CC(=O)c1cccc(NC(=O)Nc2ccc3c(c2)N(C)C(=O)CS3)c1
AC50 [1]: 7.94 µM [falling, partial curve]

CCOc1ccc(CNCc2c(C(=O)O)n(Cc3ccc(C)cc3)c3cc(C)ccc23)cc1
AC50 [1]: 25.1 µM [falling, single point]

CSc1ccccc1NC(=O)C1CC(c2ccccc2O)=NO1 (stereo unspecified)
AC50 [1]: 20 µM [falling, partial curve]

Cc1c(Cl)cccc1NC(=O)CN(CCc1ccccc1)S(=O)(=O)c1ccccc1
AC50 [1]: 5.01 µM [falling, single point]

Cc1cccc(C(=O)N2CCc3cc(CNS(=O)(=O)c4ccc(Cl)s4)ccc32)c1
AC50 [1]: 0.316 µM [falling, full curve]

CCCCn1c(NCc2ccc(OC)cc2O)nc2ccccc21
AC50 [1]: 20 µM [falling, partial curve]

O=C(NCc1ccc(F)cc1)c1ccc2c(O)c(S(=O)(=O)c3ccccc3)c(=O)[nH]c2c1
AC50 [1]: 0.1 µM [rising, full curve, poor fit]

CCCCn1nc(NC(=O)c2cccc(Cl)c2)c2cc3ccccc3nc21
AC50 [1]: 7.94 µM [falling, partial curve]

CCOc1ccc(NC(=O)c2cnn3c2NC(c2cccc(OC)c2)=CC3c2ccccc2)cc1 (stereo unspecified)
AC50 [1]: 20 µM [falling, single point]

Cc1ccc(C(=O)Nc2nnc(S(=O)(=O)N3c4ccccc4CC3C)s2)cc1 (stereo unspecified)
AC50 [1]: 39.8 µM [falling, single point]

CC(=O)Nc1ccc(NC(=O)CSc2nc3ccccc3nc2N2CCC(C)CC2)cc1
AC50 [1]: 31.6 µM [falling, partial curve]

Cc1c(C(=O)N2CCCCCC2)c(S(=O)(=O)NCc2ccc(Br)cc2)c(C)n1C
AC50 [1]: 1.58 µM [falling, full curve, poor fit]

Cc1ccc(-c2nc3ccccn3c2Nc2ccccc2C)s1
AC50 [1]: 12.6 µM [falling, partial curve]

Cc1ccc2cc(CN(Cc3nnnn3Cc3ccco3)CC3CCCO3)c(=O)[nH]c2c1C (stereo unspecified)
AC50 [1]: 39.8 µM [falling, single point]

CCOC(=O)Nc1cccc(OCC(=O)Nc2ccc(OC)cc2OC)c1
AC50 [1]: 31.6 µM [falling, single point]

Cc1cc(N2CCC(C(=O)N3CCN(c4cccc(C)c4C)CC3)CC2)n2ncnc2n1
AC50 [1]: 20 µM [falling, partial curve]

O=C(Nc1cccc(NC(=O)c2ccc(-c3cccc(Br)c3)o2)c1)c1ccco1
AC50 [1]: 0.794 µM [falling, full curve]

CCOc1ccc(C2Nc3c(C)cccc3-c3cc(C)nn32)cc1 (stereo unspecified)
AC50 [1]: 39.8 µM [falling, single point]

COc1ccc(NC(=O)c2sc3nc4c(cc3c2N)CCCCCC4)cc1
AC50 [2]: 39.8 µM [rising, single point]
AC50 [3]: 10 µM [falling, partial curve]

Cc1ccccc1OCc1nc2c3cnn(-c4ccccc4F)c3ncn2n1
AC50 [1]: 31.6 µM [rising, partial curve]

CCc1ccc(OCC(=O)Nc2cc(-c3ccc(C)cc3)no2)cc1
AC50 [1]: 0.158 µM [falling, full curve]

COc1ccc(CNC(=O)CSc2ncc3c(n2)-c2cc(Cl)ccc2N(Cc2ccccc2)S3(=O)=O)cc1
AC50 [1]: 3.98 µM [falling, full curve]

O=C(Nc1cccc(C(F)(F)F)c1)N1CCC(c2nc(-c3ccc(F)cc3)no2)CC1
AC50 [2]: 20 µM [falling, single point]
AC50 [3]: 7.94 µM [falling, full curve, poor fit]

CCn1c(SCC(=O)Nc2ccc(Cl)cc2)nnc1C1CC1
AC50 [1]: 10 µM [falling, partial curve]

CCn1c(=O)cc(C(=O)OC)sc1=Nc1ccc(F)c(F)c1
AC50 [2]: 6.31 µM [rising, single point]
AC50 [3]: 20 µM [falling, partial curve]

CCOC(=O)CSC1=Nc2ccccc2C2=NC(CCC(=O)NCc3ccc(OC)cc3)C(=O)N12 (stereo unspecified)
AC50 [1]: 6.31 µM [rising, single point]

Oc1c(C(c2ccccc2F)N2CCN(c3ccccc3F)CC2)sc2nc(-c3ccco3)nn12 (stereo unspecified)
AC50 [1]: 39.8 µM [falling, single point]

Cc1ccccc1N1CCN(S(=O)(=O)c2ccccc2)CC1
AC50 [1]: 20 µM [falling, single point]

O=C(Nc1nnc(-c2ccccc2Cl)o1)c1ccco1
AC50 [1]: 10 µM [falling, partial curve]

COc1ccc(C)cc1NS(=O)(=O)c1ccc2c3c(cccc13)C(=O)N2
AC50 [1]: 25.1 µM [falling, partial curve]

CCCc1cc(N2CCN(c3cccc(C)c3C)CC2)n2cnnc2n1
AC50 [1]: 25.1 µM [falling, partial curve]

COc1ccc(CNC(=O)CCC2N=C3c4ccccc4N=C(SCc4ccccc4F)N3C2=O)cc1 (stereo unspecified)
AC50 [1]: 3.98 µM [rising, partial curve, poor fit]

COC(=O)c1ccc(NC(=O)CN2CCN(S(=O)(=O)c3ccc(Br)cc3)CC2)cc1
AC50 [1]: 7.94 µM [falling, partial curve]

O=C1CCC(=O)N1c1ccccc1-c1ccccc1
AC50 [1]: 10 µM [falling, partial curve]

CCOc1ccccc1NS(=O)(=O)c1ccc2[nH]c3c(c2c1)CCCCC3
AC50 [1]: 6.31 µM [falling, full curve]

COc1ccc(S(=O)(=O)N(CC(=O)Nc2cc(C)ccc2OC)Cc2ccccc2)cc1
AC50 [1]: 10 µM [falling, partial curve]

COc1cc2c(cc1NC(=O)CSc1nnc(Cc3cccs3)n1C)oc1ccccc12
AC50 [1]: 20 µM [falling, partial curve] [measured here: IkB-luc green channel]

CCOc1cc(-c2c(C#N)c(N)nc3c2CCCC3C)ccc1O (stereo unspecified)
AC50 [1]: 31.6 µM [falling, single point]

CCCN(CCC)CCCNC(=O)C1CCN(c2nc3ccc(CC)cc3s2)CC1
AC50 [1]: 0.126 µM [falling, full curve, poor fit]

COC(=O)CSc1nc2c(c(-c3ccc(C)o3)c1C#N)CCCC2
AC50 [1]: 7.94 µM [falling, partial curve]

CCOc1cc(C2c3c(oc4cc(C)cc(C)c4c3=O)C(=O)N2CCO)ccc1O (stereo unspecified)
AC50 [1]: 0.0316 µM [rising, full curve]

N#C/C(=C\c1cccc(F)c1)c1nc(-c2cc3c(ccc4ccccc43)oc2=O)cs1
AC50 [1]: 7.94 µM [falling, partial curve, poor fit]

COC(=O)c1sccc1S(=O)(=O)N1CCN(c2ccc(C)cc2C)CC1
AC50 [1]: 10 µM [falling, partial curve]

COc1cccc(NC(=O)CSc2ncc3c(n2)-c2ccc(Cl)cc2N(C)S3(=O)=O)c1
AC50 [2]: 39.8 µM [rising, single point]
AC50 [3]: 31.6 µM [rising, partial curve]

CC(C)(C)c1ccc(C(=O)NC2(C(F)(F)F)NC(=O)N(CCc3ccccc3)C2=O)cc1 (stereo unspecified)
AC50 [1]: 25.1 µM [falling, partial curve]

CCOc1ccc(CNC(=O)c2ccccc2NC(=O)c2nsc3ccccc23)cc1
AC50 [1]: 0.316 µM [rising, partial curve]

CCc1ccc(NC(=O)c2cc(C(C)C)on2)cc1
AC50 [1]: 5.01 µM [falling, partial curve]

COc1ccc2nc(NC(=O)c3cccc(OCc4c(C)noc4C)c3)sc2c1
AC50 [1]: 7.94 µM [falling, partial curve]
